Experimental findings from publication doi:10.1101/533067 are described below.

Sequences of proteins named here, by UniProt entry; tags and fusion partners are left off.
UniProt P32563: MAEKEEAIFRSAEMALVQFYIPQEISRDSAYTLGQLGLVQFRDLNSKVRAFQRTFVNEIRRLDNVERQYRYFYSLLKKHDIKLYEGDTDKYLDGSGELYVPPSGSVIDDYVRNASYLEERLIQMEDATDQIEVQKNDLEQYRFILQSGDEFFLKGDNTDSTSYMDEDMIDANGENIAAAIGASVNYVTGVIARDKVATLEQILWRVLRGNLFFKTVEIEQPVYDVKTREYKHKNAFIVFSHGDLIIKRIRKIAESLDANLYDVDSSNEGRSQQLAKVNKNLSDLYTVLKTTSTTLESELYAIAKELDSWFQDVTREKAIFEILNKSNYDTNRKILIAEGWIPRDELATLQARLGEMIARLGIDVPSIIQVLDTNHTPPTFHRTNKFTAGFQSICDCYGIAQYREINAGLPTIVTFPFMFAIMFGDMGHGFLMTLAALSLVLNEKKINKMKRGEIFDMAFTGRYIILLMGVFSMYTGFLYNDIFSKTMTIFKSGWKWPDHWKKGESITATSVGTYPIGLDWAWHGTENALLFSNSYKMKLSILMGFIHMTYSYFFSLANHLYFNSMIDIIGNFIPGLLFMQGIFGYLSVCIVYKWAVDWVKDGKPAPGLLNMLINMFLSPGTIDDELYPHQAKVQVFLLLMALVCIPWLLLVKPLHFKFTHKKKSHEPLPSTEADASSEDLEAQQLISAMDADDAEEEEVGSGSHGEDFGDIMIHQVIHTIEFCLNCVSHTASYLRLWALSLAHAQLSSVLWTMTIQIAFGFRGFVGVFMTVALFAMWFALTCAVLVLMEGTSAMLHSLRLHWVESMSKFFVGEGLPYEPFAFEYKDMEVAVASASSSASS

The target of the assay is T1, Pmc1 tagged with HA (Pmc1-HA3), vacuolar Ca2+ ATPase (Saccharomyces cerevisiae) (UniProt P38929).
T1 sequence: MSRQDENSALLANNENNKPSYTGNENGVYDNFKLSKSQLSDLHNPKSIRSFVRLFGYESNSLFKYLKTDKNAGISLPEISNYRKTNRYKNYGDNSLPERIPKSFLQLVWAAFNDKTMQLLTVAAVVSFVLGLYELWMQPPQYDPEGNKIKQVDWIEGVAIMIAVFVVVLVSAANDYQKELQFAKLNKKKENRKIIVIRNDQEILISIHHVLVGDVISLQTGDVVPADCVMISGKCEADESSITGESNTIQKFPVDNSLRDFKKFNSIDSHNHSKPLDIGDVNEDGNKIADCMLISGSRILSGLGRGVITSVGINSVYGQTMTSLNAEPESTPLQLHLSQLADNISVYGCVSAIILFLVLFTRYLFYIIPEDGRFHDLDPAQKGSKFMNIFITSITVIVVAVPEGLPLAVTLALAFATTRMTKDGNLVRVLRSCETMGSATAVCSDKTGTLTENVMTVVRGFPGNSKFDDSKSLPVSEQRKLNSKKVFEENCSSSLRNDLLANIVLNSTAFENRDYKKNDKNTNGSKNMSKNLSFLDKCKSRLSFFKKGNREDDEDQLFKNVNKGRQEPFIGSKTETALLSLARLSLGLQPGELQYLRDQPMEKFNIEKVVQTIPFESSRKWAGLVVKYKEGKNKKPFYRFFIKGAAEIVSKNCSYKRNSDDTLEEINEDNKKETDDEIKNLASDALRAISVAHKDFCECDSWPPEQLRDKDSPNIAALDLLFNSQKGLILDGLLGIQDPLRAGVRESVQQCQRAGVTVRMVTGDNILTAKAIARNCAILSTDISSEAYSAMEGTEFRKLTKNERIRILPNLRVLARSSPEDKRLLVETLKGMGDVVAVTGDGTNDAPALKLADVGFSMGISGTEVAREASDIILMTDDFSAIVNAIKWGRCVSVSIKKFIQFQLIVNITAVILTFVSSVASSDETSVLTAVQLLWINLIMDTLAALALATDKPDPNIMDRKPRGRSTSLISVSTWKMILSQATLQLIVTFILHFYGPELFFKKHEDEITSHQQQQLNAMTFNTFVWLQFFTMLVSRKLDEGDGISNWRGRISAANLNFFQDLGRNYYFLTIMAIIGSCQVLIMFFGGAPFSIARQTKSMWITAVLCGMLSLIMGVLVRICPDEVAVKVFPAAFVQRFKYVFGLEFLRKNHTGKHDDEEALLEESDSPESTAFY
The experiment in a line: co-IP.

No constants are given. Whether binding was seen depends on the method and setting. Binding seen in cells or lysates may run through a third protein. Some entries that bind do so weakly or less than the wild type. Tags and fused reporters may be left off the sequences shown.

On to “Vph1, Vo component of the V-ATPase (from UniProt P32563 1-840)”, for which the binding entry was “binds”.

B1: Nyv1, vacuolar R-SNARE (protein, UniProt Q12255 1-253)
chain: MKRFNVSYVEVIKNGETISSCFQPFQKNENYGTITSANEQITPVIFHNLIMDMVLPKVVPIKGNKVTKMSMNLIDGFDCFYSTDDHDPKTVYVCFTLVDMPKILPIRILSGLQEYESNATNELLSSHVGQILDSFHEELVEYRNQTLNSSGNGQSSNGNGQNTISDIGDATEDQIKDVIQIMNDNIDKFLERQERVSLLVDKTSQLNSSSNKFRRKAVNIKEIMWWQKVKNITLLTFTIILFVSAAFMFFYLW
B1: the binding entry is on record as “binds”.
